Measurements from article doi:10.64898/2025.12.20.695697.
Read-outs that look alike come from different tables or passages of the source. These are yes or no findings as the source states them, for the method shown. In cells and extracts the contact can be indirect. Some entries that bind do so weakly or less than the wild type. Tags and fused reporters may be left off the sequences shown.

By UniProt entry, the sequences of proteins in these tests, tags left out. Where a name states a change or a piece, a line headed by the entry shows the natural chain unless it says otherwise.
UniProt Q15382, whole entry: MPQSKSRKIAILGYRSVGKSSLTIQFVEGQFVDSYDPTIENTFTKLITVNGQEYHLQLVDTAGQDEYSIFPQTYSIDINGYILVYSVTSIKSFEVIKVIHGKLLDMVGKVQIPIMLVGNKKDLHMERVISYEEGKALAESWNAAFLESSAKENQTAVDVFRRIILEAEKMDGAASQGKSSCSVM
UniProt O75140, whole entry: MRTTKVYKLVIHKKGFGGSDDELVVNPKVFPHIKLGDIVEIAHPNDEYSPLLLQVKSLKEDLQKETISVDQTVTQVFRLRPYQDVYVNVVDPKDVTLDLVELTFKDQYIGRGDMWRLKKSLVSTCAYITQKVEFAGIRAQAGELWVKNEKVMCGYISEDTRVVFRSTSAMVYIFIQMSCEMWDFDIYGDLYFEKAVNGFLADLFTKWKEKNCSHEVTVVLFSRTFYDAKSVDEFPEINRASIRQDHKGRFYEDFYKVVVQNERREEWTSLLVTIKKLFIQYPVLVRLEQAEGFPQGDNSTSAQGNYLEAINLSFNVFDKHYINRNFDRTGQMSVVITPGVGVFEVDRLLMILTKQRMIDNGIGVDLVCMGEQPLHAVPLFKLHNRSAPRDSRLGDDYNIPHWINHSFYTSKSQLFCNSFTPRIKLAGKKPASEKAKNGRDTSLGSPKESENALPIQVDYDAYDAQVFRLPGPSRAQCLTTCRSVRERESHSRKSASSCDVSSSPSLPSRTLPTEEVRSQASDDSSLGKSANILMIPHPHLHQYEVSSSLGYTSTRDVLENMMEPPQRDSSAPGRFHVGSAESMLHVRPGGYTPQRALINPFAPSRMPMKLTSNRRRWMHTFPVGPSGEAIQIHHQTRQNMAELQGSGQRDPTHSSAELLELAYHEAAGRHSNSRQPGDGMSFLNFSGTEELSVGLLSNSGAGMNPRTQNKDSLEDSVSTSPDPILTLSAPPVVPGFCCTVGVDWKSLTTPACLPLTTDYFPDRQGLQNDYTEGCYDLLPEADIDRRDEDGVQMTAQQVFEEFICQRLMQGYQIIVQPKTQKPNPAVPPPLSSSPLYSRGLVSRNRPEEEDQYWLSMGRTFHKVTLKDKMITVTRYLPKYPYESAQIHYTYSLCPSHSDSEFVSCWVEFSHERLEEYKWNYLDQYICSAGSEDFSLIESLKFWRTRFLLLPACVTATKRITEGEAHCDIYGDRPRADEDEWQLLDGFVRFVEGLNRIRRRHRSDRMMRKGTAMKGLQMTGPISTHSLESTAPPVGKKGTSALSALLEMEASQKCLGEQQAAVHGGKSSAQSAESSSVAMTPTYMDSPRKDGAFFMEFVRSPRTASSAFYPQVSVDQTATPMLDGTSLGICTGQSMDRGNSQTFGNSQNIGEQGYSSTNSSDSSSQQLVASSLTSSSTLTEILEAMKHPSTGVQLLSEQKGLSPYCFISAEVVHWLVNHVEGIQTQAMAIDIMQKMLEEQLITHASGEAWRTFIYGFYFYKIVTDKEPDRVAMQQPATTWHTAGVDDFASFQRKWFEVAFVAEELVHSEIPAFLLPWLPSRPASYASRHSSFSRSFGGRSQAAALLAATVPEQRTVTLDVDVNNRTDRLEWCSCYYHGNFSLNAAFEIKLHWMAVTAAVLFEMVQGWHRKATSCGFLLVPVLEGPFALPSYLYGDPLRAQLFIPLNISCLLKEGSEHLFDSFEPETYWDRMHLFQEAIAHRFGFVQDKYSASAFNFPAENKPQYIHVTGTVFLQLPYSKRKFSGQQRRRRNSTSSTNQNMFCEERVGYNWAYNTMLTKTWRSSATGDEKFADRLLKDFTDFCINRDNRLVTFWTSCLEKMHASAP

Experiments:
GST-Rheb (human) = GST-Rheb (human) (UniProt Q15382); experiment: pull-down
FLAG-Rheb^S20N (human) [1] = molecular target: FLAG-Rheb^S20N (human) (UniProt Q15382); experiment: co-IP
FLAG-Rheb (human) [2] = molecular target: FLAG-Rheb (human) (UniProt Q15382); experiment: co-IP
FLAG-Rheb^C181S (human) = FLAG-Rheb^C181S (human) (UniProt Q15382); experiment: co-IP
FLAG-Rheb^Q64L (human) = FLAG-Rheb^Q64L (human) (UniProt Q15382); experiment: co-IP
FLAG-Rheb (human) [3] = molecular target: FLAG-Rheb (human) (UniProt Q15382); experiment: co-IP; remark: listed apart in the source
FLAG-Rheb^S20N (human) [4] = molecular target: FLAG-Rheb^S20N (human) (UniProt Q15382); experiment: co-IP; remark: listed apart in the source

HA-Depdc5 (from UniProt O75140 1-1603)
binding (GST-Rheb (human)): no binding

B1: HA-Nprl2 (protein, UniProt Q8WTW4 1-380)
chain: MGSGCRIECIFFSEFHPTLGPKITYQVPEDFISRELFDTVQVYIITKPELQNKLITVTAMEKKLIGCPVCIEHKKYSRNALLFNLGFVCDAQAKTCALEPIVKKLAGYLTTLELESSFVSMEESKQKLVPIMTILLEELNASGRCTLPIDESNTIHLKVIEQRPDPPVAQEYDVPVFTKDKEDFFNSQWDLTTQQILPYIDGFRHIQKISAEADVELNLVRIAIQNLLYYGVVTLVSILQYSNVYCPTPKVQDLVDDKSLQEACLSYVTKQGHKRASLRDVFQLYCSLSPGTTVRDLIGRHPQQLQHVDERKLIQFGLMKNLIRRLQKYPVRVTREEQSHPARLYTGCHSYDEICCKTGMSYHELDERLENDPNIIICWK
binding (GST-Rheb (human)): binds | binding (FLAG-Rheb^S20N (human) [1]): binds | binding (FLAG-Rheb (human) [2]): binds weakly | binding (FLAG-Rheb^C181S (human)): binds weakly | binding (FLAG-Rheb^Q64L (human)): binds weakly | binding (FLAG-Rheb (human) [3]): binds | binding (FLAG-Rheb^S20N (human) [4]): binds

B2: HA-Nprl3 (protein, UniProt Q12980 1-569)
chain: MRDNTSPISVILVSSGSRGNKLLFRYPFQRSQEHPASQTSKPRSRYAASNTGDHADEQDGDSRFSDVILATILATKSEMCGQKFELKIDNVRFVGHPTLLQHALGQISKTDPSPKREAPTMILFNVVFALRANADPSVINCLHNLSRRIATVLQHEERRCQYLTREAKLILALQDEVSAMADGNEGPQSPFHHILPKCKLARDLKEAYDSLCTSGVVRLHINSWLEVSFCLPHKIHYAASSLIPPEAIERSLKAIRPYHALLLLSDEKSLLGELPIDCSPALVRVIKTTSAVKNLQQLAQDADLALLQVFQLAAHLVYWGKAIIIYPLCENNVYMLSPNASVCLYSPLAEQFSHQFPSHDLPSVLAKFSLPVSLSEFRNPLAPAVQETQLIQMVVWMLQRRLLIQLHTYVCLMASPSEEEPRPREDDVPFTARVGGRSLSTPNALSFGSPTSSDDMTLTSPSMDNSSAELLPSGDSPLNQRMTENLLASLSEHERAAILSVPAAQNPEDLRMFARLLHYFRGRHHLEEIMYNENTRRSQLLMLFDKFRSVLVVTTHEDPVIAVFQALLP
binding (GST-Rheb (human)): binds | binding (FLAG-Rheb (human) [2]): binds weakly | binding (FLAG-Rheb (human) [3]): binds | binding (FLAG-Rheb^S20N (human) [4]): binds
